This test concerns the target Flag-tagged c-Jun/AP-1 (UniProt P05412). Description: co-IP; BCPAP cells cotransfected with His-tagged UHRF1 and Flag-tagged c-Jun; IP lysis buffer (20 mM Tris-HCl pH 8.0, 150 mM NaCl, 0.5% NP-40, 10% glycerol); lysate incubated with His-tag or Flag-tag antibody 3 h at 4°C, then Protein A/G beads 16 h at 4°C; bound proteins detected with His-tag or Flag-tag antibodies.

Chains of the proteins cited; added tags and fusions are not shown.
UniProt P05412: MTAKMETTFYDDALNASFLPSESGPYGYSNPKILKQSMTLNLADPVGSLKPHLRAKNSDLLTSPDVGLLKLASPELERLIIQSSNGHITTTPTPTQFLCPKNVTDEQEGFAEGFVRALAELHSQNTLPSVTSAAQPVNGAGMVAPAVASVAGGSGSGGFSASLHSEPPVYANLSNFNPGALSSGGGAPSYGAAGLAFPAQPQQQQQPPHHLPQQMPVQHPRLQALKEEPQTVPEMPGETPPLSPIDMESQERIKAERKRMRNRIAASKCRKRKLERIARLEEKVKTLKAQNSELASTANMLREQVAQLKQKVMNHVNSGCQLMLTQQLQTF

No constants are given. Whether binding was seen depends on the method and setting. Binding seen in cells or lysates may run through a third protein. Some binding calls cover weakened binding; strength is not graded here. Tags and fused reporters may be left off the sequences shown.

B1: His-tagged UHRF1 (ubiquitin-like with PHD and ring-finger domain 1) (protein, UniProt Q96T88 1-793)
chain: MWIQVRTMDGRQTHTVDSLSRLTKVEELRRKIQELFHVEPGLQRLFYRGKQMEDGHTLFDYEVRLNDTIQLLVRQSLVLPHSTKERDSELSDTDSGCCLGQSESDKSSTHGEAAAETDSRPADEDMWDETELGLYKVNEYVDARDTNMGAWFEAQVVRVTRKAPSRDEPCSSTSRPALEEDVIYHVKYDDYPENGVVQMNSRDVRARARTIIKWQDLEVGQVVMLNYNPDNPKERGFWYDAEISRKRETRTARELYANVVLGDDSLNDCRIIFVDEVFKIERPGEGSPMVDNPMRRKSGPSCKHCKDDVNRLCRVCACHLCGGRQDPDKQLMCDECDMAFHIYCLDPPLSSVPSEDEWYCPECRNDASEVVLAGERLRESKKKAKMASATSSSQRDWGKGMACVGRTKECTIVPSNHYGPIPGIPVGTMWRFRVQVSESGVHRPHVAGIHGRSNDGAYSLVLAGGYEDDVDHGNFFTYTGSGGRDLSGNKRTAEQSCDQKLTNTNRALALNCFAPINDQEGAEAKDWRSGKPVRVVRNVKGGKNSKYAPAEGNRYDGIYKVVKYWPEKGKSGFLVWRYLLRRDDDEPGPWTKEGKDRIKKLGLTMQYPEGYLEALANREREKENSKREEEEQQEGGFASPRTGKGKWKRKSAGGGPSRAGSPRRTSKKTKVEPYSLTAQQSSLIREDKSNAKLWNEVLASLKDRPASGSPFQLFLSKVEETFQCICCQELVFRPITTVCQHNVCKDCLDRSFRAQVFSCPACRYDLGRSYAMQVNQPLQTVLNQLFPGYGNGR
On to B1, for which the binding entry was “binds”.
